System: SMb20036 FBS-RO version
Assay: FBS-RO version of SMb20036 biosensor, FRET ratio change on ligand
Type: binding, Sinorhizobium meliloti
Details: FBS-RO version (RFP/OFP) of SMb20036
Experimental: Ligand-induced FRET ratio changes of purified FRET biosensor were screened using a LS55 luminescence spectrometer (PerkinElmer Instruments). Excitation (ex.) was at (λ/slit width) 433/10 nm (CFP) or 549/10 nm (OFP). Emission (em.) was measured at 475/10 nm (CFP), 527/10 nm (YFP), 573/10 nm (OFP) and 644/10 nm (RFP). To confirm that Aphrodite and mKate2 were properly folded their fluorescence was individually tested by direct excitation at 510/6 nm and 588/10 nm respectively.
Affinity constants (Kd) of FRET biosensors with specific ligands were established using a monochromator microplate reader (Safire, Tecan, Switzerland; CFP ex.: (λ\bandwidth) 433/12 nm, em.: 475/12 nm; YFP em.: 527/12 nm. OFP ex.: 533/12 nm, em.: 563/12 nm; RFP em.: 615/12 nm). Proteins were diluted to give relative fluorescence units (RFU) in the detection range of 30,000 to 50,000 RFU at a gain of 90 to 100, and then were added to a dilution series (10^−3 to 10^−11 M) of ligand in Tris-HCl (pH 8.5, 50 mM). The change in relative emission intensities at 527/477 nm (YFP/CFP) or 615/563 nm (RFP/OFP) was used to determine Kd by fitting the titration curves to a single-site-binding isotherm: [drawing 1] with: R, ratio; Rapo, ratio without ligand; Rsat, ratio at saturation of ligand; n, number of equal binding sites; [L], ligand concentration. […]

O=C(O)C1=C[C@@H](O)[C@@H](O)[C@H](O)C1 [shikimic acid]
change in FRET ratio on binding ligand: no change in FRET ratio

— PMC3454389, “Mining the Sinorhizobium meliloti Transportome to Develop FRET Biosensors for Sugars, Dicarboxylates and Cyclic Polyols” (PLoS ONE, 2012)
